Data published in PMC7819943, “Rice protein-binding microarrays: a tool to detect cis-acting elements near promoter regions in rice”.
The list shows a part of the results.

target: T1, OsSMF1 (Oryza sativa, UniProt Q6ZLB0 1-436); assay: protein-binding microarray (RPBM); PBS, 2% BSA, 51.3 ng/ul salmon testes DNA, 50 uM zinc acetate, 200 nM TF, 25 C, 1 h; high values mean tight binding; conditions: protein: recombinant; tags: N-terminal polyhistidine and DsRed monomer fusion (pET32a); chain copies: 2; label: CyDye5-dUTP incorporated in the synthesized complementary strand; 3' TTTTT single-stranded linker to array surface; dsDNA, one strand shown
T1 sequence: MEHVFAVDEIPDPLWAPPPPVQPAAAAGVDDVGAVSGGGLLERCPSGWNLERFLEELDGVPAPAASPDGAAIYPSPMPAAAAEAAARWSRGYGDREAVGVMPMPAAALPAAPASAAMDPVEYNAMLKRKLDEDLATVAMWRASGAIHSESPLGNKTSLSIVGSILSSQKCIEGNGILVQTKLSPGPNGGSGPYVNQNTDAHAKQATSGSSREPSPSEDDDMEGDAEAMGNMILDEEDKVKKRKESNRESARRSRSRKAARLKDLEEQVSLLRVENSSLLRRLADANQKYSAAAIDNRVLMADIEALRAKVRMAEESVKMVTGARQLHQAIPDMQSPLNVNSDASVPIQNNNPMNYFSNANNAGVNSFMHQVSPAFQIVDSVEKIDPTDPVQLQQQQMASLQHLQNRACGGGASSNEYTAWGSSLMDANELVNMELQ
In short: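 The binding signal for each feature is its fluorescence intensity in arbitrary units. An Axon 4000B scanner was used to read a custom Agilent array that had been made double-stranded with Cy5-dUTP primer extension, blocked with 2% BSA, incubated at 25 °C for 1 h with 200 nM protein in PBS, 2% BSA, salmon testes DNA and 50 µM zinc acetate, and washed. The protein was an N-terminal polyhistidine–DsRed transcription factor fusion from E. coli BL21-CodonPlus, purified on Ni–NTA.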

In order of falling binding signal:
1. CAAGCTCGGTAGGAGTAGCAGTAGCTCTGTTGTTCGGTTGCGGAGTCACCTAGTGCAG  37200 fluorescence intensity (a.u.)
2. TCAGCTCTCACCCGCGGGGAGAAGGGAGGAACACGGAGAACGGAGTCACCTAGTGCAG  30300 fluorescence intensity (a.u.)
3. TTAGCCCTTTTGCTTCATATGTTTGACCAGATGCTTTCAACGGAGTCACCTAGTGCAG  25600 fluorescence intensity (a.u.)
4. TGATGACGTCGTCACGCTGACACATGGGGCCCACGTGGGTCGGAGTCACCTAGTGCAG  19600 fluorescence intensity (a.u.)
5. ACCACCACCTTGATGTCCCTCTAAATGAGGAAACCCTCGCCGGAGTCACCTAGTGCAG  17000 fluorescence intensity (a.u.)
6. TAGAAGAGAGAGAATGACACGTGGGCTCCACATTCTTAATCGGAGTCACCTAGTGCAG  13800 fluorescence intensity (a.u.)
7. TTCAGATCCGCGCGCTGAGGTCACTGTAGAACACGGCGGTCGGAGTCACCTAGTGCAG  13500 fluorescence intensity (a.u.)
8. TGGGTCCTGCTTGATGACTCAGCAAGTCAACTGCCATATACGGAGTCACCTAGTGCAG  8180 fluorescence intensity (a.u.)
9. CGTTTCTACCTCGGCCCAATCGGAGCCCGACACGTATGTCCGGAGTCACCTAGTGCAG  6820 fluorescence intensity (a.u.)
10. CTTCGTCGCTTCCGCGTGTCGTCACACTCCACTCCGTCCACGGAGTCACCTAGTGCAG  5840 fluorescence intensity (a.u.)
11. GCATCATGTCACGTGTGACGCCCTCGTCTCCGTCCTACTCCGGAGTCACCTAGTGCAG  5710 fluorescence intensity (a.u.)
12. ATAATCAAACACGCCCCGTCACTTCGCCGCACACATCACACGGAGTCACCTAGTGCAG  5560 fluorescence intensity (a.u.)
13. CCGGCAGCCCGGCACCACGTACGCCACCGCCATCTCACGCCGGAGTCACCTAGTGCAG  5100 fluorescence intensity (a.u.)
14. GCTGCCGGCTGTCCTCGTCACGCGATCCCGACCGGCGCTTCGGAGTCACCTAGTGCAG  5070 fluorescence intensity (a.u.)
15. CGAGCAGCAGCCCATGTGGGCCCACCTCGTCAGCGGCACGCGGAGTCACCTAGTGCAG  5000 fluorescence intensity (a.u.)
16. TACCGTCGTGCTCCATCAATTCCATCTCCACGTGTTATTGCGGAGTCACCTAGTGCAG  4780 fluorescence intensity (a.u.)
17. TAATGGATTTGTTTGGTCATCTACATGGGAGGGTGGCTCACGGAGTCACCTAGTGCAG  4710 fluorescence intensity (a.u.)
18. GGGGCGAGGAGGTGGCTGGATGCTGCTGTCACCTCTGGGCCGGAGTCACCTAGTGCAG  4640 fluorescence intensity (a.u.)
19. ACGATCGATCCACCGACCAACGTGGCGACCCCTCATTGGTCGGAGTCACCTAGTGCAG  4610 fluorescence intensity (a.u.)
20. CTCCTCCGTCTCGCGCCCGCCGCCGCCGCCACCGCCACCGCGGAGTCACCTAGTGCAG  4480 fluorescence intensity (a.u.)
21. GAGGCGAGGCGACGGTACGTGTCCTCTTTTCTCTCTCGATCGGAGTCACCTAGTGCAG  4270 fluorescence intensity (a.u.)
22. TTATAAGGCTGATGGAAACACATCCTATCTCCTTAGTCAGCGGAGTCACCTAGTGCAG  4180 fluorescence intensity (a.u.)
23. TATAATCGTGTGTTTCGTTTTCCGTGTCAGGAGGCAAGGTCGGAGTCACCTAGTGCAG  3950 fluorescence intensity (a.u.)
24. GCTAGGATGGTTTGGGATTGTGTGGGTTATGTTGTCTTTGCGGAGTCACCTAGTGCAG  3860 fluorescence intensity (a.u.)
25. CTTGCTCTCCGCCAGCTCTGCCACCTCCTCGCACGCGCCGCGGAGTCACCTAGTGCAG  3740 fluorescence intensity (a.u.)
26. AAGAGGTGACGTGAAAACTCGTCCTCGCCTTGGTTTTAAGCGGAGTCACCTAGTGCAG  3680 fluorescence intensity (a.u.)
27. TGTTGTACAGTATATTGTAATCTTGCCAAGTTGTAACGATCGGAGTCACCTAGTGCAG  3570 fluorescence intensity (a.u.)
28. ATTGAAGTATCCTAGCTGTTTTCCTCTCAATCCGCTATCTCGGAGTCACCTAGTGCAG  3550 fluorescence intensity (a.u.)
29. TTGTTGGTGTTGCTGGCGCGGGACGTGTTCTGGCCCATCTCGGAGTCACCTAGTGCAG  3540 fluorescence intensity (a.u.)
30. AAATGCATATGTGTATGACAGGTGTGACCATATATTAATTCGGAGTCACCTAGTGCAG  3430 fluorescence intensity (a.u.)
31. CTACTGAGCATAATTAATTTATAATTAGCATATGTGATAACGGAGTCACCTAGTGCAG  3370 fluorescence intensity (a.u.)
32. CCTCCTCCGGCTCCATCAGCTCGTCACGACCGGCGTCTCTCGGAGTCACCTAGTGCAG  3360 fluorescence intensity (a.u.)
33. CCCCGCTTCGCCGCCGGCCGCCTCTCTCTTCTCAAGAGTCCGGAGTCACCTAGTGCAG  3340 fluorescence intensity (a.u.)
34. TCGTTGAGAAATCAATAATCCACGCGCCATTTCATTGGTACGGAGTCACCTAGTGCAG  3310 fluorescence intensity (a.u.)
35. CCAAAGGGGCAAGCCTATACACTATTTACCTGAACTTTGCCGGAGTCACCTAGTGCAG  3300 fluorescence intensity (a.u.)
36. TTCCAACAATGCGCCCACGTCCGGGTAACATCCGGCGCTTCGGAGTCACCTAGTGCAG  3280 fluorescence intensity (a.u.)
37. CGTCCACCGCGCCGCCGCCGCCCTCCGTCACGCGCGCGCTCGGAGTCACCTAGTGCAG  3270 fluorescence intensity (a.u.)
38. AGGTGAGCCGGCGCTGAGTTTCCCACAGTCAGCGCCATTACGGAGTCACCTAGTGCAG  3250 fluorescence intensity (a.u.)
39. ATTACTCTCGCTGTCGCTGGCCGTGGCGTTCCTGGCCGCACGGAGTCACCTAGTGCAG  3240 fluorescence intensity (a.u.)
40. TCTGTAGCCGAAGTCACTTAACTTTATCACTGATATGTGGCGGAGTCACCTAGTGCAG  3230 fluorescence intensity (a.u.)
41. CGTGTAAATACTACAAATCCGCCACCGCAACATTTTCATCCGGAGTCACCTAGTGCAG  3180 fluorescence intensity (a.u.)
42. GATGCATCATGCACCTGCCCTTCTAAATTAACCTTGCACGCGGAGTCACCTAGTGCAG  3150 fluorescence intensity (a.u.)
